# Values from PubChem BioAssay AID602196 (INSERM, 2012)
# Assay: 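Genes whose knock-down alters cisplatin killing of lung cancer cells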
# System: human A549 lung cancer cells
# Reagents: siRNA pair against human genes
# Time to read-out: 48 h transfection before cisplatin; time from cisplatin to read-out not stated
# Conditions: cisplatin at a dose killing half of control-siRNA cells; exact dose and duration not given
# Measured: 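Cisplatin cell death as a shift from the 50% death seen with control siRNA; siRNAs toxic or growth-blocking alone scored 0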
# Scale: two-siRNA summed score (-2 to +2): higher = both siRNAs protect from cisplatin killing; -2 means both sensitise; mean protection from cisplatin (shift in death) and protection from cisplatin (shift in death), siRNA C and protection from cisplatin (shift in death), siRNA D: higher = protection from cisplatin killing
# Hit rule: 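siRNAs harmful alone (LDH or WST-1) get 0; others get +1 for less and -1 for more cisplatin killing; genes are active when the two siRNAs give the same sign, summing to ±2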
# Meaning of the calls: active = both siRNAs shift cisplatin killing the same way; inactive = no consistent shift, or siRNA harmful alone
# This is a random part of about 23,000 deposited reagents. In the full data, 455 (2%) got an active call. 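Active includes both protection and sensitisation; some change values fall well beyond the stated -50 to +50 range.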 Unmarked entries are inactive. Reagents against one gene are numbered here. Not given: the amount of reagent.
gene,reagent,two-siRNA summed score (-2 to +2),mean protection from cisplatin (shift in death) (%),"protection from cisplatin (shift in death), siRNA C (%)","protection from cisplatin (shift in death), siRNA D (%)"
FOXE3 (forkhead box E3),1,0,-8.8,-8.2,-9.4
TMEM60 (transmembrane protein 60),1,0,12.8,17.5,8.1
RLBP1 (retinaldehyde binding protein 1),1,1,20.9,23.6,18.3
LAMC1 (laminin subunit gamma 1),1,-1,-12.2,-7,-17.4
LOC400492,1,0,4.3,6.2,2.5
ZZZ3 (zinc finger ZZ-type containing 3),1,0,-0.8,1,-2.5
LOC390414,1,0,11,17.1,4.9
LOC399968,1,0,5.1,2.6,7.6
POFUT1 (protein O-fucosyltransferase 1),1,-1,-27,-19.5,-34.4
RHOXF1 (Rhox homeobox family member 1),1,0,-6.7,-1.4,-12.1
CCDC117 (coiled-coil domain containing 117),1,0,3.9,0.8,7.1
TSGA10 (testis specific 10),1,1,6.9,-0.3,14.1
TRIM66 (tripartite motif containing 66),1,0,-1.1,8.8,-10.9
LOC389372,1,0,8.3,12.6,3.9
"FARP1 (FERM, ARH/RhoGEF and pleckstrin domain protein 1)",1,0,8.2,7.3,9.2
ZNG1A (Zn regulated GTPase metalloprotein activator 1A),1,0,7.2,-1.7,16.2
DUSP22 (dual specificity phosphatase 22),1,0,6.8,8.8,4.8
LOC284546,1,0,7.5,1.3,13.6
LOC133185,1,0,10.3,15.8,4.8
EXOC3L4 (exocyst complex component 3 like 4),1,1,9,-4.6,22.6
GLDC (glycine decarboxylase),1,0,-1.3,-7.8,5.2
RGS3 (regulator of G protein signaling 3),1,0,24.6,37.6,11.6
"QKI (QKI, KH domain containing RNA binding)",1,-1,-5.2,1.4,-11.8
TBC1D23 (TBC1 domain family member 23),1,-1,-21.3,-11.1,-31.6

Records above whose gene name begins with F or f (2):
gene,reagent,two-siRNA summed score (-2 to +2),mean protection from cisplatin (shift in death) (%),"protection from cisplatin (shift in death), siRNA C (%)","protection from cisplatin (shift in death), siRNA D (%)"
FOXE3 (forkhead box E3),1,0,-8.8,-8.2,-9.4
"FARP1 (FERM, ARH/RhoGEF and pleckstrin domain protein 1)",1,0,8.2,7.3,9.2

Additional results:
gene,reagent,two-siRNA summed score (-2 to +2),mean protection from cisplatin (shift in death) (%),"protection from cisplatin (shift in death), siRNA C (%)","protection from cisplatin (shift in death), siRNA D (%)"
AIMP2,1,0,-3.4,-11.5,4.6
OR5H14 (olfactory receptor family 5 subfamily H member 14),1,0,-2.6,-15.1,10
SLC22A17,1,0,-2.3,1.8,-6.4
CSNK1A1 (casein kinase 1 alpha 1),1,-1,-14,-5.2,-22.8
PRPH (peripherin),1,0,-2.8,-0.8,-4.8
ZFP3 (ZFP3 zinc finger protein),1,-1,-3.7,-12.8,5.4
IGHV1OR15-1 (immunoglobulin heavy variable 1/OR15-1 (non-functional)),1,1,10.5,2.8,18.2
COX17 (cytochrome c oxidase copper chaperone COX17),1,0,0.5,0.4,0.6
NUP54 (nucleoporin 54),1,0,-15,0.9,-30.9
LYSET (lysosomal enzyme trafficking factor),1,0,-0.7,11.9,-13.2
FUT5 (fucosyltransferase 5),1,0,-2.9,1.8,-7.6
IPMK (inositol polyphosphate multikinase),1,0,5.6,-0.7,11.8
DKFZp686P0288,1,0,6.1,4.8,7.4
UGT2B4 (UDP glucuronosyltransferase family 2 member B4),1,0,7.5,3.1,11.9
FLJ45422,1,0,3.3,0.6,6
SLC38A1,1,0,2.6,8.9,-3.7
PIGG,1,1,1.6,-14.7,17.9
CFHR3 (complement factor H related 3),1,0,2.1,-10.7,14.9
DCST2 (DC-STAMP domain containing 2),1,1,12.2,11.9,12.5
TNFRSF13C (TNF receptor superfamily member 13C),1,0,-3.8,-36.8,29.1
LOC441413,1,0,3.7,6.1,1.3
PYGL (glycogen phosphorylase L),1,0,1.3,-0.5,3.1
CHRNA9 (cholinergic receptor nicotinic alpha 9 subunit),1,0,-2.7,1.2,-6.6
KRTAP3-2 (keratin associated protein 3-2),1,0,15.1,18.1,12
"MR1 (major histocompatibility complex, class I-related)",1,1,3.8,-8.5,16
TBC1D17 (TBC1 domain family member 17),1,0,5.5,0.6,10.4
ZBED3 (zinc finger BED-type containing 3),1,0,-3.1,8.7,-14.9
SOSTDC1 (sclerostin domain containing 1),1,0,6.5,0.9,12
TECPR2 (tectonin beta-propeller repeat containing 2),1,0,-3.4,5,-11.8
KIAA1971,1,0,8.5,15.3,1.7
MRGPRX4 (MAS related GPR family member X4),1,0,-2.6,-1.6,-3.6
TRIM42 (tripartite motif containing 42),1,2 (active),19.2,21.4,17.1
FHL5 (four and a half LIM domains 5),1,0,-6.7,-7.5,-5.9
C20orf141 (chromosome 20 open reading frame 141),1,1,7.8,-2.2,17.9
PTRH2 (peptidyl-tRNA hydrolase 2),1,0,5.2,1,9.5
PTRH2 (peptidyl-tRNA hydrolase 2),2,0,17,12.4,21.5
GRP (gastrin releasing peptide),1,0,5,6.2,3.8
GRP (gastrin releasing peptide),2,1,6.9,4.3,9.4
LCE2C (late cornified envelope 2C),1,0,3.7,1.4,6
ZNF417 (zinc finger protein 417),1,0,-0.9,6.3,-8
SCRN3 (secernin 3),1,0,1.9,1,2.8
OR4K15 (olfactory receptor family 4 subfamily K member 15),1,0,-0.3,-2,1.3
LOC389934,1,-1,-7.8,-2.4,-13.2
H3C12 (H3 clustered histone 12),1,0,-5.1,-7,-3.2
DHRS4L2 (dehydrogenase/reductase 4 like 2),1,-1,-1,17.5,-19.6
REG4 (regenerating family member 4),1,0,8.2,11,5.3
TTLL7 (tubulin tyrosine ligase like 7),1,0,3.1,6.5,-0.4
KCNJ3 (potassium inwardly rectifying channel subfamily J member 3),1,0,4.5,25.9,-16.9
LOC391040,1,0,26.7,36.3,17.2
